The values below come from PMC4608839.

This assay deals with T1, GST-Pelle (Drosophila melanogaster) (UniProt Q05652).
T1 sequence: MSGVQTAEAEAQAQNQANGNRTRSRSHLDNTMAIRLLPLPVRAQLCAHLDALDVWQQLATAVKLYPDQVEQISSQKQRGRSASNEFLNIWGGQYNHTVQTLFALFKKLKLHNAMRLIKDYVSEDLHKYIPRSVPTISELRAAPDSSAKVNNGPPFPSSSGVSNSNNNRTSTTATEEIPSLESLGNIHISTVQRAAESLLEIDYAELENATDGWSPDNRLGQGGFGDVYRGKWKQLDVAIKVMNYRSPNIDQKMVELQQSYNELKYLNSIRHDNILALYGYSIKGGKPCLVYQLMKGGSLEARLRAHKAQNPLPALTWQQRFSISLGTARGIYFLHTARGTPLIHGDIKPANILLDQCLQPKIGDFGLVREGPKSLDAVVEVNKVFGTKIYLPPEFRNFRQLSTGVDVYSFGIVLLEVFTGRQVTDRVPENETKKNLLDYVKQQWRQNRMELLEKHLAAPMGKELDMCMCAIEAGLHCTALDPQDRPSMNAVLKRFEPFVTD
The experiment in a line: pull-down; 10 μg GST-fusion protein with 10 μg purified 6xHis-dFoxo and 50 μl glutathione-Sepharose beads, 4°C for 5 hours; washed 5 times with lysis buffer; detection with anti-His antibody; both purified.

Results are given in words; binding and its absence hold for the method and conditions named. A result given as binding can be weak or reduced; the word gives no strength. Tags and fused reporters may be left off the sequences shown.

In the case of “His-dFoxO (full-length, 1-622aa) (Drosophila melanogaster)”, the binding entry is recorded as “binds”.
